Test results published in doi:10.1101/2020.04.27.064162.
These are yes or no findings as the source states them, for the method shown. For part of these data: Binding seen in cells or lysates may run through a third protein. Some binding calls cover weakened binding; strength is not graded here. One block for each molecule: values may come before it.

The chains behind the UniProt entries cited, without tags or fusion partners.
UniProt Q9NRN9, whole entry: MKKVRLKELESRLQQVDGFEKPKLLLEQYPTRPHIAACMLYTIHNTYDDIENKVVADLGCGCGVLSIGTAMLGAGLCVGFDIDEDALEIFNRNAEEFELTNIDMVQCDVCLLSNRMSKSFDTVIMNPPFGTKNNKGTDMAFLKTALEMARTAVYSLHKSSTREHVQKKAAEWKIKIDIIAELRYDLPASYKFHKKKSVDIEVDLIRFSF

What was measured:
[1] = target: T1, TRMT112 (endogenous) (human (endogenous in 293T)) (UniProt Q9UI30); assay: co-IP
T1 sequence: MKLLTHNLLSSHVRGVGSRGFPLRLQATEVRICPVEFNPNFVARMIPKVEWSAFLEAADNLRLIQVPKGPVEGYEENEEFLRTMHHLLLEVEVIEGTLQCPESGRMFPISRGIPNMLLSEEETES

[2] = target: METTL5 (untagged, endogenous) (UniProt Q9NRN9); assay: co-IP
[3] = target: recombinant METTL5 (of the METTL5/TRMT112 complex) (UniProt Q9NRN9); assay: SEC

binding [1]: binds
Molecule: METTL5 (untagged, endogenous) (from UniProt Q9NRN9 1-209) (enzyme)

binding [2]: binds
B1: TRMT112 (endogenous) (protein, UniProt Q9UI30 1-125)
chain: T1 sequence

binding [3]: binds
B2: recombinant TRMT112 (of the METTL5/TRMT112 complex) (protein, UniProt Q9UI30 1-125)
chain: T1 sequence
